For at least one compound, name, drawing or mass did not settle the structure.
Target: T1, Aiolos (Homo sapiens, UniProt Q96SW2+Q9UKT9)
T1 construct: endogenous in cells; host or cells: human PBMCs (CD20+CD3- B cells, CD3+CD20- T cells)
Assay: Aiolos degradation in human T cells
Assay type: cell-based

The chains behind the UniProt entries cited, without tags or fusion partners. Where a name states a change or a piece, a line headed by the entry shows the natural chain unless it says otherwise.
UniProt Q96SW2: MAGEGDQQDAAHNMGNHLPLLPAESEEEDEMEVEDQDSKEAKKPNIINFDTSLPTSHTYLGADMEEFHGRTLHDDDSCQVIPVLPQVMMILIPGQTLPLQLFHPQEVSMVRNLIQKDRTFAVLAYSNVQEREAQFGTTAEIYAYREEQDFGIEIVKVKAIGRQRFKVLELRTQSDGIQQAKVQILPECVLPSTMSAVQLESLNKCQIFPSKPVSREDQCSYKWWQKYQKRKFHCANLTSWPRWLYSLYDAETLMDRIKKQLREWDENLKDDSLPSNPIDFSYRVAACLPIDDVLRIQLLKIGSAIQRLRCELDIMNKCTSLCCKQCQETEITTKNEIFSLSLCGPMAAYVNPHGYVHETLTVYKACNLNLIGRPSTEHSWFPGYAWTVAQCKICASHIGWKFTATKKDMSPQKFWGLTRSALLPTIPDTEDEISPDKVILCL
UniProt Q9UKT9: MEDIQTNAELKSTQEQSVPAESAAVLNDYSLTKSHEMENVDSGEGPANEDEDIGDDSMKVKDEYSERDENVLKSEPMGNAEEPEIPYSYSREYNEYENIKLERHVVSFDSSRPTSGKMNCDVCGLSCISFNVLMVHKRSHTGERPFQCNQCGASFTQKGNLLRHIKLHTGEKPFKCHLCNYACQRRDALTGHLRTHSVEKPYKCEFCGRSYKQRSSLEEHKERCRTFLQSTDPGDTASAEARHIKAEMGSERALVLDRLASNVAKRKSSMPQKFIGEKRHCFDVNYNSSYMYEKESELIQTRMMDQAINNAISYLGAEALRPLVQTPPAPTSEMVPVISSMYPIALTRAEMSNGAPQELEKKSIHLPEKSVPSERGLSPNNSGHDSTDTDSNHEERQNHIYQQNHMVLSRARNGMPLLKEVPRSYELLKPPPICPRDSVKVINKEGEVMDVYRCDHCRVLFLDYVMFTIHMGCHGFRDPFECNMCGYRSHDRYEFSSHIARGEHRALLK

NC(=O)c1ncc(N2CCCCC2)nc1Nc1ccc(C2CCN(C[C@@H]3CCN(c4ccc5c(c4)C(=O)N(C4CCC(=O)NC4=O)C5=O)C3)CC2)cc1 (stereo partly shown) [Compound 5]
Aiolos degradation: degrades both BTK and immunomodulatory cereblon neosubstrate Aiolos

Reference: patent US20250017922A1, “BIFUNCTIONAL COMPOUNDS FOR DEGRADING BTK WITH ENHANCED IMID ACTIVITY” (NURIX THERAPEUTICS, INC., priority 2021, published 2025)
